{"source": "patent US20230287071A1", "note": "Results are given in words; binding and its absence hold for the method and conditions named. Binding calls can cover weak binding; strength is not graded here."}
{"biological_target": "HLA-B*44:05 (human)", "assay": "UV peptide-exchange ELISA, yield grade"}
{"binder": "HEHGLFNLY", "note": "[… (SEQ ID NO: 246)]", "binding": "binds"}
{"binder": "NESDRLVYF", "note": "[… (SEQ ID NO: 16)]", "binding": "binds"}
{"binder": "KESMLKTTL", "note": "[… (SEQ ID NO: 247)]", "binding": "binds"}
{"binder": "KESQLPTVMDF", "note": "[… (SEQ ID NO: 248)]", "binding": "binds"}
{"binder": "YEMAIYKKY", "note": "[… (SEQ ID NO: 249)]", "binding": "binds"}
{"binder": "AELDHLASL", "note": "[… (SEQ ID NO: 250)]", "binding": "binds"}
{"binder": "DESADSEPHKY", "note": "[… (SEQ ID NO: 251)]", "binding": "binds"}
{"binder": "EEFIGKIGI", "note": "[… (SEQ ID NO: 252)]", "binding": "binds"}
{"binder": "QEILHGAVRF", "note": "[… (SEQ ID NO: 253)]", "binding": "binds"}
{"binder": "QEVAGYVLI", "note": "[… (SEQ ID NO: 254)]", "binding": "binds"}
{"binder": "KQWEYNEKLAF", "note": "[… (SEQ ID NO: 255)]", "binding": "binds"}
{"binder": "RLLPGKVVW", "note": "[… (SEQ ID NO: 256)]", "binding": "binds"}
{"binder": "SEIYQPRGF", "note": "[… (SEQ ID NO: 17)]", "binding": "binds"}
{"binder": "IEVSSPITL", "note": "[… (SEQ ID NO: 258)]", "binding": "binds"}
{"binder": "IEVSSPITLQAL", "note": "[… (SEQ ID NO: 259)]", "binding": "binds"}
{"binder": "VELMFPLLL", "note": "[… (SEQ ID NO: 260)]", "binding": "binds"}
{"binder": "QEWDPQKTEKY", "note": "[… (SEQ ID NO: 261)]", "binding": "binds"}
{"binder": "YENILNAI", "note": "[YENILNAI (SEQ ID NO: 262)]", "binding": "binds"}
{"binder": "AEQLRGFNA", "note": "[… (SEQ ID NO: 263)]", "binding": "binds"}
{"binder": "RELIKAIGL", "note": "[… (SEQ ID NO: 264)]", "binding": "binds"}
{"binder": "EDNLIHKF", "note": "[EDNLIHKF (SEQ ID NO: 265)]", "binding": "binds"}
{"binder": "EEEDRDGHTW", "note": "[… (SEQ ID NO: 266)]", "binding": "binds"}
{"binder": "VELEVPQL", "note": "[VELEVPQL (SEQ ID NO: 267)]", "binding": "binds"}
{"binder": "QEAPRPASSL", "note": "[… (SEQ ID NO: 18)]", "binding": "binds"}
{"binder": "EDLAVHLY", "note": "[EDLAVHLY (SEQ ID NO: 268)]", "binding": "binds"}
{"binder": "SEDLAVHL", "note": "[SEDLAVHL (SEQ ID NO: 269)]", "binding": "binds"}
{"binder": "REDLVGPEV", "note": "[… (SEQ ID NO: 271)]", "binding": "binds"}
{"binder": "SEQNIQRANLF", "note": "[… (SEQ ID NO: 272)]", "binding": "binds"}
{"binder": "TEFELLHQV", "note": "[… (SEQ ID NO: 273)]", "binding": "binds"}
{"binder": "DEIDKLTGY", "note": "[… (SEQ ID NO: 274)]", "binding": "binds"}
{"binder": "SEYQDGKEF", "note": "[… (SEQ ID NO: 276)]", "binding": "binds"}
{"binder": "VEFPATRSL", "note": "[… (SEQ ID NO: 277)]", "binding": "binds"}
{"binder": "DQVTVFLHF", "note": "[… (SEQ ID NO: 278)]", "binding": "binds"}
{"binder": "MEHSDENIQFW", "note": "[… (SEQ ID NO: 19)]", "binding": "binds"}
{"binder": "GEPVTQPGSLL", "note": "[… (SEQ ID NO: 279)]", "binding": "binds"}
{"binder": "AAEPLVGQRW", "note": "[… (SEQ ID NO: 280)]", "binding": "binds"}
{"binder": "HEIPQESL", "note": "[HEIPQESL (SEQ ID NO: 281)]", "binding": "binds"}
{"binder": "KEFGIGDLVW", "note": "[… (SEQ ID NO: 282)]", "binding": "binds"}
{"binder": "VEEEISRHY", "note": "[… (SEQ ID NO: 283)]", "binding": "binds"}
{"binder": "SQYPHTHTF", "note": "[… (SEQ ID NO: 284)]", "binding": "binds"}
{"binder": "AEHPDFSPCSF", "note": "[… (SEQ ID NO: 285)]", "binding": "binds"}
{"binder": "DELSVGRY", "note": "[DELSVGRY (SEQ ID NO: 286)]", "binding": "binds"}
{"binder": "REVSVVDIL", "note": "[… (SEQ ID NO: 287)]", "binding": "binds"}
{"binder": "TEHFLKKFF", "note": "[… (SEQ ID NO: 288)]", "binding": "binds"}
{"binder": "LEALLSDLF", "note": "[… (SEQ ID NO: 20)]", "binding": "binds"}
{"binder": "AECILSKRL", "note": "[… (SEQ ID NO: 290)]", "binding": "binds"}
{"binder": "DEQLLLRF", "note": "[DEQLLLRF (SEQ ID NO: 291)]", "binding": "binds"}
{"binder": "HELALRQTV", "note": "[… (SEQ ID NO: 292)]", "binding": "binds"}
{"binder": "QEDEQLLLRF", "note": "[… (SEQ ID NO: 293)]", "binding": "binds"}
{"binder": "EEWEWIQKL", "note": "[… (SEQ ID NO: 294)]", "binding": "binds"}
{"binder": "QELEQEVISL", "note": "[… (SEQ ID NO: 295)]", "binding": "binds"}
{"binder": "AETIFIVRL", "note": "[… (SEQ ID NO: 296)]", "binding": "binds"}
{"binder": "DEYLIPQQGFF", "note": "[… (SEQ ID NO: 297)]", "binding": "binds"}
{"binder": "KEVASNSEL", "note": "[… (SEQ ID NO: 298)]", "binding": "binds"}
{"binder": "AEVQIARKL", "note": "[… (SEQ ID NO: 299)]", "binding": "binds"}
